In article PMC5261805 one finds binding data, which are given here for one substance.

Protein sequences, listed by entry. Tags and fused reporters are not part of them. Lines headed by an entry give the natural chain unless they say otherwise; changes in a name come on top.
UniProt G5EFD9: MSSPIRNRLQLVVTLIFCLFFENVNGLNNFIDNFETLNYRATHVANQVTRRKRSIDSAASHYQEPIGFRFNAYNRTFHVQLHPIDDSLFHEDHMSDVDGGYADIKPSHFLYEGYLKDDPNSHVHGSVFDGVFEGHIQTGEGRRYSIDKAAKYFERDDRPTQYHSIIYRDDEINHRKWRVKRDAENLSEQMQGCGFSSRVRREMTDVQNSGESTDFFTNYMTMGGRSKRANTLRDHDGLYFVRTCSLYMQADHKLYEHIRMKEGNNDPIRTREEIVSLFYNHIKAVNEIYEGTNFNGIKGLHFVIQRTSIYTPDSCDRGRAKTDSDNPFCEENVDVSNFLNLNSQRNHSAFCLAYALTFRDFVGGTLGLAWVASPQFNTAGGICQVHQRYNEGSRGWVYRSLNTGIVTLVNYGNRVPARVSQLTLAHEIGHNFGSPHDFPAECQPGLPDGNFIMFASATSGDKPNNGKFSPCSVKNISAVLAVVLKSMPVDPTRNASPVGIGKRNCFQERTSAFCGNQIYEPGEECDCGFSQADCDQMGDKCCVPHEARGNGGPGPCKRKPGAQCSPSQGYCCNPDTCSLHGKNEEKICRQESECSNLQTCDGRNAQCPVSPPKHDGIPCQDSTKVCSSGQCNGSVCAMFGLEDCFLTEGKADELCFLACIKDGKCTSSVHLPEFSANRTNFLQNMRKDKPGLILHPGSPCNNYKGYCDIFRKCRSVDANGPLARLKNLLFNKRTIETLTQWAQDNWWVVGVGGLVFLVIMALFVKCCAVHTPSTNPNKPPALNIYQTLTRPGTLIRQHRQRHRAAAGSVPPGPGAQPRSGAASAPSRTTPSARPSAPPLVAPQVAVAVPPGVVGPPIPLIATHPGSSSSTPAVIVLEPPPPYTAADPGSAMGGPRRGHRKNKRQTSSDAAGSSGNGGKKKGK

These are yes or no findings as the source states them, for the method shown. Binding can be weak; no strength is given.

For one experiment, the target named is T1, TSP-12 (C. elegans) (UniProt Q22495).
T1 sequence: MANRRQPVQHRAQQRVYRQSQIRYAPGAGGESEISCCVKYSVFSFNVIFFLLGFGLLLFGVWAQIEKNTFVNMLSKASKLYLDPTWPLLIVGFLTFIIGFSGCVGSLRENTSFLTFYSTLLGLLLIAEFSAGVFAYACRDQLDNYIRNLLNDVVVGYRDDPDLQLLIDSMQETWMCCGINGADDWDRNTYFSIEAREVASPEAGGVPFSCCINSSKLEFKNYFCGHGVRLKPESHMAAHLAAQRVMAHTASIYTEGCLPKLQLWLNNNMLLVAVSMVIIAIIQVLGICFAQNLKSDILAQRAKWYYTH
The experiment can be described thus: two-hybrid; mating-based split-ubiquitin yeast two-hybrid for membrane proteins; bait CubPLV and prey NubG fusions; diploid cells streaked on SC-Trp, -Leu, -Ade, -His, -Ura, -Met plates with 0, 0.075, 0.150 or 0.300 mM methionine; growth 2-9 days at 30°C.

A further experiment has as its target T2, TSP-14 (C. elegans) (UniProt H2L006).
T2 sequence: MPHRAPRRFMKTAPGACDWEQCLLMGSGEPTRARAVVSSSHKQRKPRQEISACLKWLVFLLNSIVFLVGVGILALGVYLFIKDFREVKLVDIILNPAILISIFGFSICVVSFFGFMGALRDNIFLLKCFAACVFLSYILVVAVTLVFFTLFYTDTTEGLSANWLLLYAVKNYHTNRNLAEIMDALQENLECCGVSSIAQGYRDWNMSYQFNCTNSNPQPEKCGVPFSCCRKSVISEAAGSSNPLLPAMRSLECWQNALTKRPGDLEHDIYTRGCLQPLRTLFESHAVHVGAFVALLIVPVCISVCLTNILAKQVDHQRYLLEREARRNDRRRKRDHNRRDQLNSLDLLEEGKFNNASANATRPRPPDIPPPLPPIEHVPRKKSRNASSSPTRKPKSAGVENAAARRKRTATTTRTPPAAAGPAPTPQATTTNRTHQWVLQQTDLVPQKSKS
The experiment is described as above.

Turning to SUP-17 (from UniProt G5EFD9) (enzyme), the binding result with TSP-12 (C. elegans) and in the experiment with TSP-14 (C. elegans) was “binds” in each case.
